Results are given in words; binding and its absence hold for the method and conditions named. In cells and extracts the contact can be indirect. Binding calls can cover weak binding; strength is not graded here.

By UniProt entry, the sequences of proteins in these tests, tags left out. Where a name states a change or a piece, a line headed by the entry shows the natural chain unless it says otherwise.
UniProt P06756: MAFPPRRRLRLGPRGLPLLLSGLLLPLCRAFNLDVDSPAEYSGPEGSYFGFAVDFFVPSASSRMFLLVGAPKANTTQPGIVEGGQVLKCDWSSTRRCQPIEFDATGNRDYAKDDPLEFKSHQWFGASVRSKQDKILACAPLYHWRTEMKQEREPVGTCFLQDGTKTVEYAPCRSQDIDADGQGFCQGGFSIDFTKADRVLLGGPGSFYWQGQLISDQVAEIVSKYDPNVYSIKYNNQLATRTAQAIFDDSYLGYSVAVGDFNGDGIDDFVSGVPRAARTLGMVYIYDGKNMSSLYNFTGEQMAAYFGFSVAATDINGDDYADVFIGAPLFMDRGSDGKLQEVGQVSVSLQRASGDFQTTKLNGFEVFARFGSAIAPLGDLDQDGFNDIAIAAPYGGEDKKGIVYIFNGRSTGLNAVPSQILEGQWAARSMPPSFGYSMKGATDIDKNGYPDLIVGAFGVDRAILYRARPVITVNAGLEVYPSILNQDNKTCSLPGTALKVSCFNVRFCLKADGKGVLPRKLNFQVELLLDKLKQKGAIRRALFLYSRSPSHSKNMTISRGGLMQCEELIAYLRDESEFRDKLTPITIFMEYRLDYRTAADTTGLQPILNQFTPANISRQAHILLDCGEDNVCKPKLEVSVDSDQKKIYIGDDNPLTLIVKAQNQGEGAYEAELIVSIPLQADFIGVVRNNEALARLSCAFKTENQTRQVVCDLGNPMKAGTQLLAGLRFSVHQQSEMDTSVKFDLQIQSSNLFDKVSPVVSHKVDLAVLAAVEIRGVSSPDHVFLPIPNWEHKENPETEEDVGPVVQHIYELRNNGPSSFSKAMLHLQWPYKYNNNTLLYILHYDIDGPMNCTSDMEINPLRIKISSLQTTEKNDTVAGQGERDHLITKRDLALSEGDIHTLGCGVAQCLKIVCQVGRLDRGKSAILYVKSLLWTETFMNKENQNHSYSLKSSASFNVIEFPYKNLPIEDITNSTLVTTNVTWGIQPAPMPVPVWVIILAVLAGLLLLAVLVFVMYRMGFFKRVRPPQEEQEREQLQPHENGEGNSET

For experiment [1], the target named is integrin αV (human) (UniProt P06756). The experiment in a line: GST pull-down and Western blot; co-immunoprecipitation with αV antibody.
Experiment [2] shares this target. The experiment in a line: co-immunoprecipitation with αV antibody on protein A agarose, blot with chicken anti PIIBNP (FIGS. 3L and M).

In the case of “GST-PIIBNP (GST fusion of human Type IIB collagen amino propeptide, exons 3-8) (from UniProt P02458 30-134) (ligand)”, the binding result in the experiment with integrin αV (human) [1] and with integrin αV (human) [2] was “binds” each time.

For the origin of these results see patent US7851436.
